Counter-ions that a name gives are not always drawn. Some of the results follow. Hit calls seldom repeat between salt and free forms of one compound.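 In K562 cells expressing nanoluciferase-fused kinases, luminescence was recorded at 4 h intervals between 2 and 18 h, normalized as percent of control with DMSO at 100% and a positive control at 0%. A significant (2 sigma) signal drop marks a time point as decreased. The authors' rule for a hit is not shown and takes in more than the number of time points.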
Columns and labels:
Assay in all cases: number of time points (of 5) at which kinase-Nluc abundance scored as decreased, DMSO-normalised (count); higher = more persistent destabilization
Settings in all cases: K562; 2-18 h
[1] = molecular target: ALK (UniProt Q9UM73)
[2] = molecular target: ARAF (UniProt P10398)
[3] = molecular target: AURKA (UniProt O14965)
[4] = molecular target: AURKB (UniProt Q96GD4)
[5] = molecular target: AURKC (UniProt Q9UQB9)
[6] = molecular target: BLK (UniProt P51451)
[7] = molecular target: BMX (UniProt P51813)
[8] = molecular target: BRAF (UniProt P15056)
[9] = tested on: BRAF_V600E
[10] = molecular target: BTK (UniProt Q06187)

The chains behind the UniProt entries cited, without tags or fusion partners. Where a name states a change or a piece, a line headed by the entry shows the natural chain unless it says otherwise.
UniProt Q9UM73: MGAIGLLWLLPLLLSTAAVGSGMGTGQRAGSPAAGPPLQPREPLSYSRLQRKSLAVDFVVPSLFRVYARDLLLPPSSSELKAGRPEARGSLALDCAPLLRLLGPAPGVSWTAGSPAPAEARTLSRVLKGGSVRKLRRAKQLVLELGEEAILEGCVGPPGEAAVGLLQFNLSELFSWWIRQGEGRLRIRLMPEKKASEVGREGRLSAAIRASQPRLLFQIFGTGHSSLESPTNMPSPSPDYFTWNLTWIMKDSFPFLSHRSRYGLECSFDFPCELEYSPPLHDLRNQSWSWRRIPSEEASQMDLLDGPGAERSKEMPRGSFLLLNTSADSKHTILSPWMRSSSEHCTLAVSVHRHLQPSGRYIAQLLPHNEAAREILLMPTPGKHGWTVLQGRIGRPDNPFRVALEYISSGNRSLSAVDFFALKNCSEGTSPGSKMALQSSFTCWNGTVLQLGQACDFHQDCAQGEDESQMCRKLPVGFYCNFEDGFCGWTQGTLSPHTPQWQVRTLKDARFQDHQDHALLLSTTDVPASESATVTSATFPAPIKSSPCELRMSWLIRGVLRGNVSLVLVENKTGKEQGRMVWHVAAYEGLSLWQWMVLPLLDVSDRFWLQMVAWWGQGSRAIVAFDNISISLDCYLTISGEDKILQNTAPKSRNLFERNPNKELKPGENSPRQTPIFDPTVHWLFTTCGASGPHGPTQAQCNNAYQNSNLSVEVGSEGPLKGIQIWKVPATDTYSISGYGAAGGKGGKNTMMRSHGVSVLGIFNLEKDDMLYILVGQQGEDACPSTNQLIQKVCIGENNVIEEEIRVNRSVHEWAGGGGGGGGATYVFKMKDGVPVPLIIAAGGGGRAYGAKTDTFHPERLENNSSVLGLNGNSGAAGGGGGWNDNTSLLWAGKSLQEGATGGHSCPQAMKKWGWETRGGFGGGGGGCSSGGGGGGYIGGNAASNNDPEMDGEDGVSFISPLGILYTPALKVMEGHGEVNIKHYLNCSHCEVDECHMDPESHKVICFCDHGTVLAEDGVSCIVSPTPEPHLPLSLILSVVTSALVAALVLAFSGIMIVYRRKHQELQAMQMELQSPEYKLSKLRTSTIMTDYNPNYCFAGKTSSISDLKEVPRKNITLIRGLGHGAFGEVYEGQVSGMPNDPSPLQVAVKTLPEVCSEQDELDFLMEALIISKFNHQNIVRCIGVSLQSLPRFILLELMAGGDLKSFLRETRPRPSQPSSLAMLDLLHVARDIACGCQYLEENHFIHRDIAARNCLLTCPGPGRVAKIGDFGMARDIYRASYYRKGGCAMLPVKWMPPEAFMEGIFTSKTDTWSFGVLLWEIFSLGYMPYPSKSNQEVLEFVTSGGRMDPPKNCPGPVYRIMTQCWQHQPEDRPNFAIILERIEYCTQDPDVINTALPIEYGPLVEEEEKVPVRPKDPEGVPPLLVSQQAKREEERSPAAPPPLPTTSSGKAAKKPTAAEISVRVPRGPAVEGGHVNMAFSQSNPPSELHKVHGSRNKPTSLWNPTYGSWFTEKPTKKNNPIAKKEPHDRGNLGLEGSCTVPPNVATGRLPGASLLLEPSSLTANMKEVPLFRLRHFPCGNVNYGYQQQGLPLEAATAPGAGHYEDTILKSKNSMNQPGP
UniProt P10398: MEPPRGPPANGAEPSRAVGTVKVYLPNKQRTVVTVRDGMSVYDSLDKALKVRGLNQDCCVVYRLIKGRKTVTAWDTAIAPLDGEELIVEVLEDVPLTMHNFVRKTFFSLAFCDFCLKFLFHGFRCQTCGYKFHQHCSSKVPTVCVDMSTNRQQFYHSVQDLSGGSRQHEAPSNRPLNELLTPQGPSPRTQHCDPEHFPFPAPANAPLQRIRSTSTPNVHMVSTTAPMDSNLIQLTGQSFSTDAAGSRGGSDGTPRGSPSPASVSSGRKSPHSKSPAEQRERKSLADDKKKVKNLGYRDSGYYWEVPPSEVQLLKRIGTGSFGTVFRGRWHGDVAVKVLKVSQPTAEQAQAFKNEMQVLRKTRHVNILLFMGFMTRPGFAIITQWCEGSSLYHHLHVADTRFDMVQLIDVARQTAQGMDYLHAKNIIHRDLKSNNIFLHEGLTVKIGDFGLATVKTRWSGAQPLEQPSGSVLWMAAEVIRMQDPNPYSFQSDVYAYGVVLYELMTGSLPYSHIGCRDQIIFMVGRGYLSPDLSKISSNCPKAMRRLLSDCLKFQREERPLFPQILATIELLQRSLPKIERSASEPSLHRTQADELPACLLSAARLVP
UniProt O14965: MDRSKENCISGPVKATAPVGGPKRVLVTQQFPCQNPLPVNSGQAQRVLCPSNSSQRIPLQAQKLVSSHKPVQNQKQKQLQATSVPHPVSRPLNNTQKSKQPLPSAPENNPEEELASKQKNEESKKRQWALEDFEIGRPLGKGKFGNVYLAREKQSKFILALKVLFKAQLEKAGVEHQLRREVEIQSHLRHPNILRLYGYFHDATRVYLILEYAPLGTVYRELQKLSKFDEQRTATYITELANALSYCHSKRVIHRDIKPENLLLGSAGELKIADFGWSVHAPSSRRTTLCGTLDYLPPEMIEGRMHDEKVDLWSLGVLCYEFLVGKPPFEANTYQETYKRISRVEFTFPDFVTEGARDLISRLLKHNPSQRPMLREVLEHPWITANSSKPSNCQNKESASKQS
UniProt Q96GD4, whole entry: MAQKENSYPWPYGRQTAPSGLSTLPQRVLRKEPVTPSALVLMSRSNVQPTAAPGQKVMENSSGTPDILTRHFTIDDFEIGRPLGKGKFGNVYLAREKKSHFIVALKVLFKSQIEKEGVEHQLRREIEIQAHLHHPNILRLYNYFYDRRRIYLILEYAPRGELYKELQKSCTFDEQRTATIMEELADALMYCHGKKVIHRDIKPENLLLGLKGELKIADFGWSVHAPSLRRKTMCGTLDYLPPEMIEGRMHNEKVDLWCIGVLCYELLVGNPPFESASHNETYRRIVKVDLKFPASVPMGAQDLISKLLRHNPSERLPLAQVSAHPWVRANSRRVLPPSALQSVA
UniProt Q9UQB9: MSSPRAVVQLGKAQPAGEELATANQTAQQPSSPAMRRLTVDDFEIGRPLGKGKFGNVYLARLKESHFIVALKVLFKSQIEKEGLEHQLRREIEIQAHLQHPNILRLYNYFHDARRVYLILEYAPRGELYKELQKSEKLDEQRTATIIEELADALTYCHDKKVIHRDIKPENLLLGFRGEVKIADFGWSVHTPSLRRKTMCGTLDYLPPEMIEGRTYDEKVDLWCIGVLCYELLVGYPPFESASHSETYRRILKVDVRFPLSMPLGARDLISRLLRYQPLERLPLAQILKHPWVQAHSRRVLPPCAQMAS
UniProt P51451: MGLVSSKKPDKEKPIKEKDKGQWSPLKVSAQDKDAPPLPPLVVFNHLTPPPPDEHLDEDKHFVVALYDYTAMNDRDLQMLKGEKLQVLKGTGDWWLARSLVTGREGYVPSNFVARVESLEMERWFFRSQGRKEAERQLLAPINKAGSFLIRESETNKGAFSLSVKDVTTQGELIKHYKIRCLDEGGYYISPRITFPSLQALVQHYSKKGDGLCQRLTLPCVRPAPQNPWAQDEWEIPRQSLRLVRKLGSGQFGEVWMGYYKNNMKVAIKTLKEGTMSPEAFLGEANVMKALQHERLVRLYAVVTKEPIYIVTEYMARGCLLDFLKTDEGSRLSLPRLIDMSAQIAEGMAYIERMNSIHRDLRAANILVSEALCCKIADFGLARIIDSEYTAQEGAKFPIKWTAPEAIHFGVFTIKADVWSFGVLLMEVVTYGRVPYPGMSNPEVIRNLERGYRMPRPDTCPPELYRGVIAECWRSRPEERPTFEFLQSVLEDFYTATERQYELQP
UniProt P51813: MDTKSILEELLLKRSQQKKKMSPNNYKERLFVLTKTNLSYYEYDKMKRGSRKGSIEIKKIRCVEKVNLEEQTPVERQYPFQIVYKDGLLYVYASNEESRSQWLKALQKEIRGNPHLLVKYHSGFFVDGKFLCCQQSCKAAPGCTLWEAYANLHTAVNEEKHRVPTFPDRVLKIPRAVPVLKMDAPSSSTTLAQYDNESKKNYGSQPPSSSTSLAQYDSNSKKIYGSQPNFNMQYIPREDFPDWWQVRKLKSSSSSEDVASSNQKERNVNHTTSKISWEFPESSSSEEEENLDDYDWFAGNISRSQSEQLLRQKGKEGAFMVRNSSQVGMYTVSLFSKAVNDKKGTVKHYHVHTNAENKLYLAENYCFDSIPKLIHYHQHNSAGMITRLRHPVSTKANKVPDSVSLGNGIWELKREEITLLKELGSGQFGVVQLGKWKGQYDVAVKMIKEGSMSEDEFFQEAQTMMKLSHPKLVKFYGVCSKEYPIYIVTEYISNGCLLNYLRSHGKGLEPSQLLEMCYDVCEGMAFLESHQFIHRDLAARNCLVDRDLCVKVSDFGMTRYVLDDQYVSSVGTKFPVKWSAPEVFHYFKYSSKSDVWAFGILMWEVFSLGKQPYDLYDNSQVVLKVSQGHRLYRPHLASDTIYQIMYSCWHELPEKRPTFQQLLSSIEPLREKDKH
UniProt P15056, whole entry, looked up: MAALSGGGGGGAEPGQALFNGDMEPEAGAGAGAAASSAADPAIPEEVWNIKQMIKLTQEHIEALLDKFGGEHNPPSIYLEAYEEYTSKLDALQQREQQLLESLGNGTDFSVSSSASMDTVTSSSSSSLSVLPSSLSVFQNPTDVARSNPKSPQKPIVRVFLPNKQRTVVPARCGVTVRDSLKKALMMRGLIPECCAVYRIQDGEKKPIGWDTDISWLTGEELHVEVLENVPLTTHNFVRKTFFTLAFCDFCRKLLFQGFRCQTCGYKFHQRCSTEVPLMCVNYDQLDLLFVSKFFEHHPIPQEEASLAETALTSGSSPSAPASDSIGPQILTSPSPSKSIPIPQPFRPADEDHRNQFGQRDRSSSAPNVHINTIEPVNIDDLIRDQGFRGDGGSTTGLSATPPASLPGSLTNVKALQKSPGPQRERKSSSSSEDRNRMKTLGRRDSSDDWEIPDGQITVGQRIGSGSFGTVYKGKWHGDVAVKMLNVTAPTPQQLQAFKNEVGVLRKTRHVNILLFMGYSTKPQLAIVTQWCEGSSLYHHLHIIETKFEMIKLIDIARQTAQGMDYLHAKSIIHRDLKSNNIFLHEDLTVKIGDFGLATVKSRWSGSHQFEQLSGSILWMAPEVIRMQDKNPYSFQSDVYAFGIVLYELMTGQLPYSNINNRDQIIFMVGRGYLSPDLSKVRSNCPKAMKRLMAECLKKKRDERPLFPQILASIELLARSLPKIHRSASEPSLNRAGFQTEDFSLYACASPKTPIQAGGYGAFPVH
UniProt Q06187: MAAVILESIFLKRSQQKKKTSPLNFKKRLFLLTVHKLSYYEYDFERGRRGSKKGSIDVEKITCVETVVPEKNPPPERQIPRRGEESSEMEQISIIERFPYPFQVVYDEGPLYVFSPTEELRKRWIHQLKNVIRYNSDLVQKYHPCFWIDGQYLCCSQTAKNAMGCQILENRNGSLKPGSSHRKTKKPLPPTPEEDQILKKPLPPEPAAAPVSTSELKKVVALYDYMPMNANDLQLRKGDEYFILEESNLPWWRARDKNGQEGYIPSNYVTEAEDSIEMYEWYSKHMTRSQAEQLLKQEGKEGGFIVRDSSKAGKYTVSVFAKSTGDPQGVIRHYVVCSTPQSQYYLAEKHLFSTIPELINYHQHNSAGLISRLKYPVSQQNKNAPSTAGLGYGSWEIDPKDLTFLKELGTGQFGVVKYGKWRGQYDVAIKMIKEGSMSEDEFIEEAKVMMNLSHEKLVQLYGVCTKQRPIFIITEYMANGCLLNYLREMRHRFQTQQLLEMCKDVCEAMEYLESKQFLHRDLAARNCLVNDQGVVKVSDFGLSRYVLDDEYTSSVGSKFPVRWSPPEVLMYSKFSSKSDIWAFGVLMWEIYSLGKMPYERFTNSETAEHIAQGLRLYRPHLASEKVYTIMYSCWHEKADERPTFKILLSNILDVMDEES

Measured: number of time points

CC[C@@H]1[C@H](F)C(=O)N[C@@H]1COc1nccc2cc(C(N)=O)c(OC)cc12 (10 µM)
0: all assays above

O=c1[nH]ccc2cc(OC3CCNCC3)ccc12 (10 µM)
0: all assays above

CC(=O)Nc1nc2ccc(-c3cnc(C)c(NC(=O)OC4CCCCC4)c3)cc2s1 (10 µM)
0: all assays above

COc1nc(-c2cccc3c2OCCO3)ccc1Nc1ccc(CN(C)C)cc1 [RAS inhibitor Abd-7] (10 µM)
0: all assays above

C=CC(=O)Nc1cccc(-n2c(=O)cc(C)c3cnc(Nc4ccc(OCCN(C)C)cc4OC)nc32)c1 (10 µM)
0: all assays above

c1cc(-c2cnn3cc(-c4ccc(N5CCNCC5)cc4)cnc23)c2cccnc2c1 (2.5 µM)
2: [7]
1: [1]
0: all other assays above

C[C@H]1Cc2ccccc2N1C(=O)Cc1nc(N2CCOCC2)cc(=O)[nH]1 (2.5 µM)
0: all assays above

CCOc1c([C@H](C)n2nc(C)c3c(N)ncnc32)cc(Cl)c(F)c1[C@@H]1CNC(=O)C1 [Parsaclisib (hydrochloride)] (10 µM)
0: all assays above

CNC(=O)c1cc(Oc2ccc3nc(N[C@@H]4CCCC[C@H]4O)sc3c2)ccn1 (10 µM)
0: all assays above

CCOC(=O)c1c2c3c(cccc3[nH]c1=O)C(=O)c1ccccc1-2 (10 µM)
0: all assays above

COc1ccc(CN2C3CC2CN(c2ccc(-c4cc(OCC(C)(C)O)cn5ncc(C#N)c45)cn2)C3)cn1 [Selpercatinib] (10 µM)
0: all assays above

Of the compounds above, 2 have fluorine.
CC[C@@H]1[C@H](F)C(=O)N[C@@H]1COc1nccc2cc(C(N)=O)c(OC)cc12 (10 µM)
0: all assays above

CCOc1c([C@H](C)n2nc(C)c3c(N)ncnc32)cc(Cl)c(F)c1[C@@H]1CNC(=O)C1 [Parsaclisib (hydrochloride)] (10 µM)
0: all assays above

Remaining list, next part.

CCC(C)(C)C(=O)N(O)Cc1ccccc1 (10 µM)
1: [6]
0: all other assays above

N=C(N)NC(=N)NCCc1ccccc1 [Phenformin (hydrochloride)] (10 µM)
0: all assays above

O=C1NC(=O)C(c2cnc3ccccn23)=C1c1cn2c3c(cc(F)cc13)CN(C(=O)N1CCCCC1)CC2 (2.5 µM)
5: [7]
0: all other assays above

COc1ccc(-n2c(C)c([N+](=O)[O-])c3ccc(O)cc32)cc1 (10 µM)
0: all assays above

CC(C)c1cc(/C=C(\C#N)C(N)=O)cc(C(C)C)c1O (10 µM)
0: all assays above

CC(C)C[C@H](NC(=O)[C@H](CCCCN)NC(=O)[C@H](CO)NC(=O)[C@@H](N)CC(C)C)C(N)=O [LSKL, Inhibitor of Thrombospondin (TSP-1) (TFA)] (10 µM)
0: all assays above

O=c1ccoc2cc(O)ccc12 [7-Hydroxy-4H-chromen-4-one] (10 µM)
0: all assays above

CCCCCCCC/C=C\CCCCCCCC(=O)NCC(=O)O [N-Oleoyl glycine] (10 µM)
0: all assays above

CC(C)c1cnn2c(NCc3ccccc3-n3cccn3)nc(OC3CCCNC3)nc12 (stereo not given) (2.5 µM)
4: [9]
2: [6]
1: [3]
0: all other assays above

C=CC(=O)N1CCC(Oc2cc3c(Nc4ccc(Cl)c(Cl)c4F)ncnc3cc2OC)CC1 [Poziotinib] (2.5 µM)
0: all assays above

CCN(C)C(=O)c1ccc2c(C(=Nc3ccc(CN4CCCCC4)cc3)c3ccccc3)c(O)[nH]c2c1 (2.5 µM)
0: all assays above

Cc1cnc(Nc2ccc(N3CCN(C)CC3)cc2)nc1Nc1cccc(S(=O)(=O)NC(C)(C)C)c1 (2.5 µM)
0: all assays above

CCCCNC(=N)NC(=N)N [Buformin (hydrochloride)] (2.5 µM)
0: all assays above

CCn1nc(C2CCN(C(=O)CCO)CC2)nc1-c1cnc(N)c(-c2nnc(C(C)(C)C)o2)n1 (10 µM)
0: all assays above

COc1cc(N2CCC(N(C)C)CC2)ccc1Nc1ncc(Cl)c(Nc2ccccc2P(C)(C)=O)n1 (2.5 µM)
1: [6]
0: all other assays above

C=CS(=O)(=O)c1ccc(Nc2nc(OCC3CCCCC3)c3[nH]cnc3n2)cc1 (2.5 µM)
0: all assays above

CN(C)C(=O)c1ccc(S(=O)(=O)c2ccc(NC(=O)[C@@](C)(O)C(F)(F)F)c(Cl)c2)cc1 (10 µM)
1: [5]
0: all other assays above

COc1ccc(CNc2nc(N(CCO)CCO)nc3c2ncn3C(C)C)cc1 (2.5 µM)
0: all assays above

CC(C)(C)c1cc(C(c2cc3c(cc2O)OCO3)N2CCOCC2)cc(C(C)(C)C)c1O (stereo not given) (2.5 µM)
0: all assays above

CC(C)Oc1ccc(-c2cnc3c(-c4ccnc5ccccc45)cnn3c2)cc1 (10 µM)
0: all assays above

CC(=O)Nc1nc(C)c(-c2nc(N3CCCC(O)C3)no2)s1 (stereo not given) (10 µM)
0: all assays above

Nc1[nH]c(=O)nc2c1ncn2[C@@H]1O[C@H](CO)[C@@H](O)[C@H]1O [Crotonoside] (10 µM)
0: all assays above

CC(CCc1ccccn1)(CCc1ccccn1)C(=O)c1ccccc1 (10 µM)
0: all assays above

CCN1/C(=C/C(C)=O)Sc2ccc(OC)cc21 (10 µM)
2: [8]
3: [7]
4: [9]
0: all other assays above

Cc1cc2ncc(-c3ccccc3)nc2cc1C (10 µM)
0: all assays above

Fc1c(Br)cccc1Nc1ncnc2cc3c(cc12)OCCO3 (2.5 µM)
2: [7]
0: all other assays above
